The other results are listed elsewhere or left out. Single wells; the ratio to wells without odorant was worked out here, and repeats agree poorly.

In this experiment the test system is OR6N2 clone 1027. As to the kind of experiment: odorant receptor activation (CRE luciferase / Renilla) (fold of no-odor wells); higher = more activation. The note with it: 100 µM.
`CC(C)(C)c1ccc(CCC=O)cc1` [bourgeonal] returned an odorant receptor activation of 0.595. In the case of `CC(=O)c1ccccc1` [acetophenone] it was 0.589; in that of `CCCCCCCCC=O` [nonyl aldehyde], 1.28. In turn, `CCCCCC(=O)O` [caproic acid] yielded an odorant receptor activation of 0.63.

The molecule `CC1=CCC(C(C)(C)O)CC1` (configuration not stated) [terpineol] yielded an odorant receptor activation of 0.997. Take `CCCCCCCCOC(C)=O` [octyl acetate]: the odorant receptor activation stood at 1.14. The molecule `COC(=O)c1ccccc1` [methyl benzoate] showed an odorant receptor activation of 1.08. `O=C1CCCCCCCCCCCCCCO1` [pentadecalactone] displayed an odorant receptor activation of 0.826. Molecule `COc1cc(C)ccc1O` [2-methoxy-4-methylphenol] displayed an odorant receptor activation of 1.78.

`CC12C=CCC1C1CCC3CC(=O)CCC3(C)C1CC2` (configuration not stated) [androstenone] registered an odorant receptor activation of 2.01. As for `CCCCCCCOC(C)=O` [heptyl acetate], the odorant receptor activation turned out to be 1.64. In the case of `CC1=NC(C)SC1C` (configuration not stated), the odorant receptor activation amounted to 0.966. On to `CC(C)C=O` [isobutyraldehyde], for which the odorant receptor activation is 1.15. In the case of `C=CC(C)(O)CCC=C(C)C` (configuration not stated) [linalool] it was 1.31; in that of `O=CCc1ccccc1` [phenyl acetaldehyde], 1.11; in that of `CCCCCCCCCCC=O` [undecanal], 1.11. `CC1COCc2cc3c(cc21)C(C)(C)C(C)C3(C)C` (configuration not stated) [galaxolide] gave an odorant receptor activation of 3.99. Molecule `CCCCCC(C)=O` [2-heptanone] returned an odorant receptor activation of 0.61.

In the case of `CC(C)C(=O)O` [isobutyric acid], the odorant receptor activation is 1.46.

The molecule `O=C1CCCCC1` [Cyclohexanone] came in with an odorant receptor activation of 0.867. The figure for `CC(C)CCC(=O)O` [4-methylvaleric acid] is 2.87; for `CCCCCOC(C)=O` [n-amyl acetate] it is 0.865.

The values above are taken from the odorant receptor screen of Mainland et al. (2015).
